# According to US20250382589A1, “SYNTHETIC OPERONS FOR THE PRODUCTION OF 2-MERCAPTOETHANE SULFONATE (COENZYME M) AND METHODS OF USING THE SAME” (priority 2024, published 2025):
# “Also recorded” adds a separate entry of the source. Like-named read-outs stand apart in the source and are kept apart here. At least one structure is not confirmed: it was looked up by name or label, or the drawing left a doubt.
# How the values were obtained:
# AhdrABC mutant strain = settings: methanol + acetate; listed as CoM-SH; cited from earlier work
# [1] = tested on: E. coli K-12 wild-type and ΔtauD; type: cell-based, Escherichia coli
# Experimental: Uptake of exogenous CoM by E. coli. To determine whether E. coli could catabolize CoM, wild-type (NB506) and ΔtauD (NB510) E. coli K-12 strains were tested for the ability to use CoM, cysteine, and taurine as sole sulfur source on M9 minimal medium lacking sulfur (—S) agar plates after washing to reduce nutrient carryover. E. coli strains were streaked on LB agar (1.5%) plates and used to inoculate 3 mL defined medium (Table 7) then incubated at 35° C. (16 hours, 215 rpm). Cells from 100 μL of each culture was harvested by centrifugation at 5,000×g for 3 minutes. Cells were washed three times and resuspended in 1 mL phosphate buffered saline (137 mM NaCl, 2.7 mM KCl, 10 mM Na2HPO4, 1.8 mM KH2PO4). […] Washed cultures were streaked on each agar plate and incubated at 35° C. for 63 hours before photographing.
# We assessed which catabolic pathways could be involved in a hypothetical digestion of CoM by E. coli. […] If this was the case, then the antioxidant effect of CoM may be stronger in the ΔtauD strain when compared to the wild-type strain.
# M. acetivorans = assay: Growth rates of M. acetivorans strains on methanol or methanol + acetate; type: cell-based, Methanosarcina acetivorans; settings: 125 mM methanol plus 40 mM acetate (mixotrophic)
smiles,measurement,setting,value
"O=S(=O)(O)CCS [CoM, 2-mercaptoethanesulfonate]",effect of exogenous CoM-SH on growth defect of ΔhdrABC mutant,AhdrABC mutant strain,partially rescue; also recorded: rescue the growth rate defect
same,growth with the substance as sulfur source,"[1]; M9 (—S) agar plates, 100 μM",can serve as an S source
same,growth with the substance as sulfur source,"[1]; M9 (—S) agar plates, 100 μM, listed as Coenzyme M",grew well
same,growth with the substance as sulfur source,"[1]; sulfur-free M9 minimal media, liquid",can utilize CoM as a source of sulfur
same,"Doubling time (h), Methanol + Acetate",M. acetivorans,9.68 h
